The values below come from PMC10801318.

No constants are given. Whether binding was seen depends on the method and setting. Binding seen in cells or lysates may run through a third protein. A result given as binding can be weak or reduced; the word gives no strength.

The target of assay [1] is T1, YOD1, endogenous (UniProt Q32Q05).
T1 sequence: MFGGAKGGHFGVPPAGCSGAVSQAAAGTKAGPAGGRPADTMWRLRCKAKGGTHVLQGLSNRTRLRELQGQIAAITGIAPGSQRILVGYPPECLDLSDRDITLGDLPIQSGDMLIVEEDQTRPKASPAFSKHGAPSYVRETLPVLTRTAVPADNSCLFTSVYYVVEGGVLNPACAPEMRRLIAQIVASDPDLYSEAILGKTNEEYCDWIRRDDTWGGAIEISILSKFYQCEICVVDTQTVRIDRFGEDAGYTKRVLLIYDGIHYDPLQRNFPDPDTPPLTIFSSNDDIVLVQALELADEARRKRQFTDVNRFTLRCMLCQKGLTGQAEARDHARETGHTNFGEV
Kind of assay: co-IP; endogenous IP from cell lysates (RIPA lysis buffer with protease inhibitors) with antibodies against TRIM54 or YOD1, or IgG, overnight at 4 °C; protein A/G beads 6 h at 4 °C; washed with RIPA three times; Western blot. (In general: Immunoblotting shows a protein as a band on a membrane.)

The target of assay [2] is TRIM54 (tripartite motif containing 54), endogenous. The description is as above.

As for “TRIM54 (tripartite motif containing 54), endogenous”, the binding result in assay [1] is listed as “binds”.

B1: YOD1, endogenous (protein, UniProt Q32Q05 1-343)
chain: T1 sequence
As for B1, the binding result in assay [2] was “binds”.
